Values quoted from earlier work, collected in patent publication US20080312336A1, “Preventive and/or Therapeutic Agent for Diabetic Vascular Disorder and Respiratory Disorder” (priority 2005, published 2008).

Tested on: rat isolated trachea
Details: normal rats compared with diabetic rats; cited from earlier work

## NCCCC(=O)O [GABA, γ-aminobutyric acid]
  contraction-inhibitory effect, normal versus diabetic rats: significantly high in normal rats
